Reference: US20230414629A1, “MATERIALS AND METHODS OF TREATING CANCER” (MONOPTEROS THERAPEUTICS, INC., priority 2020, published 2023)

Assay: pKa
Type: physicochemical

Structure (SMILES): CO[C@@H](C)c1c(NC(=O)Nc2ccnc(C(F)(F)F)c2)cnc2cc(Cl)nn12 [MLT-943]
- pKa: < 5
